Our source for the binding values is publication PMC10441915.

Assay in all cases: two-hybrid; AtNHX1 C-terminal 99 aa as bait (Gal4 binding domain, pDEST-GBKT7), AtCaM15 as prey (Gal4 activation domain, pDEST-GADT7); S. cerevisiae Y190; growth on SC-T/L/H with 25 mM 3-AT and X-gal staining (LacZ)
Assay [1] addresses AtNHX1 C-terminal region (99 amino acids), sup1602 allele (Arabidopsis).
Assay [2] addresses AtNHX1 C-terminal region (99 amino acids), sup908 allele (Arabidopsis).
Assay [3] addresses AtNHX1 C-terminal region (99 amino acids), wild type (Arabidopsis).

These are yes or no findings as the source states them, for the method shown. For part of these data: Binding calls can cover weak binding; strength is not graded here.

B1: AtCaM15 (protein, UniProt Q9M8U1 1-165)
chain: MSCDGGKPAPAKLGDEQLAELREIFRSFDQNKDGSLTELELGSLLRSLGLKPSQDQLDTLIQKADRNNNGLVEFSEFVALVEPDLVKCPYTDDQLKAIFRMFDRDGNGYITAAELAHSMAKLGHALTAEELTGMIKEADRDGDGCIDFQEFVQAITSAAFDNAWG
In the case of B1, the binding result was “no binding” in assay [1], “no binding” in assay [2] and “binds” in assay [3].
